In PubChem BioAssay AID493014 (National Center for Advancing Translational Sciences (NCATS), 2011):
About 170 (0.05%) of roughly 340,000 compounds were called active. Inconclusive means that the source gave no clear call. Such entries were picked first, then a sample of the others. Calls come from the whole dose curve; as a rule, active = well fitted inhibition curve with a large enough effect in the signal ratio, with a control signal flat (not every such curve was filed as active); inconclusive = small, poorly fitted or top-dose-only effect, or effect the other way, or a change in a side signal; inactive = flat fitted curve, though single readings scatter; the % refers to the signal ratio. Potencies beside an inconclusive call are fits to weak or partial responses and may not hold up.

assay: qHTS Assay to Find Inhibitors of Chronic Active B-Cell Receptor Signaling; settings: ABC-DLBCL IkBa-CBG/CBR reporter, luminescence ratio (green luciferase fused to IkBa over red control in TMD8 lymphoma cells), 4 h; activity change, negative = inhibition: at 46.1 µM (top of the series);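 for activity change, negative = inhibition: plate controls were basal doxycycline-induced cells for no effect and cells given 10 µM MG132 for full effect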
Method in brief: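 TMD8 ABC-DLBCL cells carrying doxycycline-inducible green luciferase fused to IkappaBalpha plus unfused red luciferase were exposed to compounds (up to 46 uM) for 4 hrs at 37C. Activity came from the overlap-corrected green/red luminescence ratio.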
Potency is the fitted concentration of half-maximal effect.

| Compound | activity change, negative = inhibition | Potency |
| --- | --- | --- |
| COCCOC(=O)N/C=C\c1nc2ccccc2c(=O)[nH]1 | inactive | – |
| CC(=O)Nc1ccc(S(=O)(=O)NCc2cn3ccsc3n2)cc1 | inconclusive: -1.96% | – |
| C=CCc1c(O)c(CC)cc2c(C)cc(=O)oc12 | inconclusive: 1.01% | – |
| COn1c(SCc2ccc(Cl)cc2)nc2ccccc2c1=O | inconclusive: 13.6% | – |
| Cc1ccc(-n2c(N)c(S(=O)(=O)c3ccccc3)c3nc4ccccc4nc32)cc1 | – | inconclusive: 10 µM [falling, partial curve] |
| Cc1ccc(C(=O)NCCSC(C)(C)C)cc1[N+](=O)[O-] | inactive | – |
| CN(C)CCCNC(=O)c1cc(C(=O)c2ccccc2)c[nH]1 | inconclusive: 0.858% | – |
| COc1ccc(C(=O)c2sc(Nc3cccc(OC)c3)c(C(=O)Nc3cccc(C)c3C)c2N)cc1 | inconclusive: 10.2% | – |
| COC(=O)NNC(=O)c1ccc(Cl)cc1Cl | inactive | – |
| O=C(NCc1ccco1)c1cc(C(=O)C2CCCCC2)c[nH]1 | inconclusive: 17.3% | – |
| Cc1ccc(CSc2nnnn2C)cc1 | inactive | – |
| CCN(CC)S(=O)(=O)c1cc(OC)ccc1N=Nc1ccc(O)c2ncccc12 | inactive | – |
| COc1cc(/C=C2\S/C(=N/S(=O)(=O)c3ccccc3)NC2=O)c([N+](=O)[O-])cc1OC | inconclusive: -21.1% | – |
| COC(=O)c1ccc(NCC(=O)c2ccccc2)cc1 | inconclusive: -1.12% | – |
| COc1cccc(CNCC(O)(c2ccc(Cl)cc2)c2ccc(Cl)cc2)c1 | inconclusive: 4.36% | – |
| COC(=O)[C@H](CC(C)C)NC(=O)Cn1cnc2c(NCc3ccccc3)ncnc21 | inconclusive: 4.01% | – |
| S=c1[nH]nc(-c2ccncc2)n1/N=C/c1cccc2ccccc12 | inconclusive: 18.4% | – |
| COc1ccc(CC(=O)NCc2ccc3c(c2)CCN3C(=O)c2ccc(Cl)cc2)cc1OC | inconclusive: 3.49% | – |
| COc1cc(SC)ccc1C(=O)Nc1ccc(C)cc1 | inconclusive: -22.3% | – |
| O=C(N/N=C/c1cccnc1)c1cc(-c2ccccc2OCc2ccccc2)n[nH]1 | – | inconclusive: 10 µM [falling, partial curve] |
| COc1ccc(Cn2c(-c3ccc(C)cc3)nc3c(c(=O)c4ccccc4n3C)c2=O)cc1 | inactive | – |
| COc1ccccc1NS(=O)(=O)c1cc(NC(=O)c2cccs2)ccc1N1CCCCC1 | – | inconclusive: 25.9 µM [falling, partial curve, poor fit] |
| CCOC(=O)C(Sc1nnc2c3ccccc3n(CC)c2n1)C(=O)OCC | inactive | – |
| O=C(Cn1nc(Cc2cccnc2)c2ccccc2c1=O)Nc1ccc2c(c1)OCO2 | inconclusive: 7.63% | – |
| CCOCCCn1c(SCC(=O)Nc2cc(C(C)(C)C)nn2-c2ccccc2)nc2ccccc2c1=O | inconclusive: -24.2% | – |
| Cc1cc(C)nc(N/N=C/c2cccc(Cl)c2)n1 | inconclusive: -16% | – |
| COc1ccc(NC(=O)CN2CCN(S(=O)(=O)c3ccc(Br)cc3)CC2)c(OC)c1 | inconclusive: -0.319% | – |

Reprinted at random: five records from the list

| Compound | activity change, negative = inhibition | Potency |
| --- | --- | --- |
| CC(=O)Nc1ccc(S(=O)(=O)NCc2cn3ccsc3n2)cc1 | inconclusive: -1.96% | – |
| S=c1[nH]nc(-c2ccncc2)n1/N=C/c1cccc2ccccc12 | inconclusive: 18.4% | – |
| COn1c(SCc2ccc(Cl)cc2)nc2ccccc2c1=O | inconclusive: 13.6% | – |
| COC(=O)NNC(=O)c1ccc(Cl)cc1Cl | inactive | – |
| C=CCc1c(O)c(CC)cc2c(C)cc(=O)oc12 | inconclusive: 1.01% | – |

Further entries.

| Compound | activity change, negative = inhibition | Potency |
| --- | --- | --- |
| CC(C)(C)OC(=O)CNC(=O)c1nc[nH]c1C(=O)NCc1ccccc1 | inactive | – |
| COC(=O)c1ccc(C(=O)NC2CCCc3c2cnn3-c2ccccc2F)nc1 (stereo not given) | inactive | – |
| Nc1c2c(nc3sc4c(c13)CCCC4)-c1ccccc1CC2 | inconclusive: 12.8% | – |
| COc1ccc(C(=O)NC(=S)N2CCN(c3ccc([N+](=O)[O-])cc3)CC2)cc1 | inactive | – |
| O=c1c(-c2ccc(Cl)cc2)c[nH]n1-c1ccccc1 | inconclusive: 389% | – |
| Cc1c(NC(=O)CSc2nnc(C(C)Oc3ccc(Cl)cc3)n2-c2ccccc2)c(=O)n(-c2ccccc2)n1C (stereo not given) | inconclusive: 7.61% | – |
| Nc1ccc2nc(N3CCOCC3)sc2c1 | – | inconclusive: 15.8 µM [falling, partial curve, poor fit] |
| Cc1ccc(NC(=O)c2cc(-c3ccc(C)o3)nc3ccccc23)cc1 | inconclusive: -12% | – |
| O=C(/C=C/c1ccccc1)Nc1ccc(C(=O)N2CCCCC2)cc1 | inconclusive: 10.5% | – |
| O=c1c(-c2ccc(Cl)cc2)[n+]([O-])c2ccccc2n1O | – | inconclusive: 29.1 µM [falling, single point] |
| Cc1ccc(C(=O)Nc2ccc3c(c2)C(=O)NC3=O)cc1 | – | inconclusive: 0.891 µM [falling, full curve] |
| Cc1ccc(C(=O)Nc2nc(C)c(C(=O)Nc3ccc4c(c3)CCC4)s2)cc1 | – | inconclusive: 20.6 µM [falling, partial curve] |
| COc1cccc(/C=C/C(=O)Nc2ccc3c(c2)OCCO3)c1OC | – | inconclusive: 17.8 µM [falling, partial curve, poor fit] |
| Cc1cccc2c1cnn2C(=O)CCC(=O)NCC(C)c1ccccc1 (stereo not given) | inconclusive: 13.5% | – |
| Cc1ccc(C(=O)N2CCN(c3ccc(C(F)(F)F)cn3)CC2)c(C)c1 | inconclusive: 1.35% | – |
| COCC(C)N=C1NN=C(c2cccs2)C(CC(=O)O)S1 (stereo not given) | inconclusive: 1.82% | – |
| Cc1ccccc1N=CC1=C(O)c2ccccc2C1=O | – | inconclusive: 11.2 µM [falling, partial curve] |
| CCOC(=O)NC(=O)CSc1ccc2ccccc2n1 | inconclusive: 7.6% | – |
| O=C(O)c1cccc(N2CCCCS2(=O)=O)c1 | – | inconclusive: 23.1 µM [falling, partial curve, poor fit] |
| COc1ccc(CCNC(=O)COC(=O)C23CC4CC(CC(Br)(C4)C2)C3)cc1 | inactive | – |
| CCOC(=O)c1ccc(NC(=O)COc2ccc(CNC3CCCCC3)cc2OC)cc1 | inconclusive: -9.67% | – |
| COc1ccc(CC(=O)N/N=C(\C)CC(=O)Nc2cccc(F)c2)cc1 | inconclusive: -29.4% | – |
| COc1cc(OC)cc(C(=O)OCn2nnc3ccccc3c2=O)c1 | inactive | – |
| O=C(CNS(=O)(=O)/C=C/c1ccccc1)OC1CCOC1=O (stereo not given) | inconclusive: 6.21% | – |
| COc1cc(S(=O)(=O)N2CCOCC2)cc(C(=O)c2nccn2C)c1OC | inactive | – |
| CCc1ccc(NC(=O)c2cnn(-c3ccccc3)c2C2CCNCC2)cc1 | – | inconclusive: 35.5 µM [cytotoxic, single point] |
| NC(=O)c1ccc(NC(=O)COC(=O)c2ccc3c(c2)OCCO3)cc1 | inconclusive: 1.35% | – |

| Compound | activity change, negative = inhibition | Potency |
| --- | --- | --- |
| COc1ccccc1/C=C/C(=O)c1ccc(Cl)cc1 | – | inconclusive: 14.1 µM [falling, single point] |
| COc1cccc(-c2c(NC(C)=O)n(C)c3ccccc3c2=O)c1 | inconclusive: 0.762% | – |
| O=C(CSc1nc(-c2ccccc2)cs1)Nc1nccs1 | – | inconclusive: 1.46 µM [rising, partial curve] |
| C/C(=C\c1ccco1)C1C(C#N)=C(N)OC2=C1C(=O)CC(C)(C)C2 (stereo not given) | inconclusive: 9.03% | – |
| CCCCn1c(NC(=S)Nc2ccccc2)nc2ccccc21 | inconclusive: 17.3% | – |
| Cc1oc(-c2cccc3ccccc23)nc1CN1CCN(c2ncnc3ccccc23)CC1 | inconclusive: -11.9% | – |
| Cc1nc2nc(Cc3ccccc3)[nH]n2c(=O)c1Cc1ccccc1 | inconclusive: 0.0035% | – |
| COc1ccc(C2=NN(c3ccc(C=O)cc3)C(c3ccccc3)C2)cc1 (stereo not given) | – | inconclusive: 15.8 µM [rising, partial curve, poor fit] |
| CCOc1ccccc1CN1CCN(Cc2cc(=O)c3ccccc3[nH]2)CC1CCO (stereo not given) | inactive | – |
| CN(C)CCN(Cc1ccco1)C(=O)c1oc2ccccc2c1NC(=O)COc1ccccc1 | inconclusive: -1.09% | – |
| O=C(O)c1cccc(N2CCCC2)c1 | – | inconclusive: 4.61 µM [rising, full curve] |
| Cc1ccc(S(=O)(=O)NCCN2CCOCC2)cc1 | inconclusive: -0.455% | – |
| COc1ccc(NC(C)C(=O)N/N=C/c2ccccc2OCc2cccc(Br)c2)cc1 (stereo not given) | inconclusive: -0.638% | – |
| COc1cccc(/C=N/NC(=O)c2cc3c(OC)cccc3[nH]2)c1O | – | inconclusive: 0.259 µM [falling, full curve, poor fit] |
| O=C(CSc1nnc(-c2cccnc2)s1)Nc1ccnc2ccccc12 | inactive | – |
| Fc1ccc(CO/N=C2\CCCc3nonc32)cc1 | inconclusive: 6.01% | – |
| Cc1ccc(C(=O)N2C(CC(=O)Nc3ccc(Cl)cc3)C(=O)NC3CCCCC32)cc1 (stereo not given) | – | inconclusive: 35.5 µM [falling, single point] |
| Oc1cccc2ccc(/C=C/c3ccccc3Cl)nc12 | – | inconclusive: 20 µM [falling, partial curve, poor fit] |
| CCCSc1nsc(NC(=O)Nc2ccc(F)cc2F)n1 | – | inconclusive: 6.31 µM [falling, single point] |
| Cc1ccc(N(C(=O)c2ccc(Br)o2)C2C=CS(=O)(=O)C2)cc1 (stereo not given) | inconclusive: 7.95% | – |
| CCC(=O)Nc1cccc(-c2nnc(-c3cccc(NC(=O)CC)c3)o2)c1 | – | inconclusive: 35.5 µM [falling, single point] |
| COc1ccc(S(N)(=O)=O)cc1C(=O)NC1CCCc2ccccc21 (stereo not given) | inactive | – |
| CC(=O)Nc1ccc(Nc2nnc(-c3ccc(C)c(S(=O)(=O)NCC4CCCO4)c3)c3ccccc23)cc1 (stereo not given) | – | inconclusive: 11.2 µM [falling, partial curve] |
| Cc1cc(C2C(C#N)=C(N)Oc3n[nH]c(C)c32)c(C)s1 (stereo not given) | – | inconclusive: 35.5 µM [falling, single point] |
| Cc1ccc(C)c2c1cc(C)c1nnc(SCc3ccccn3)n12 | inconclusive: -9.83% | – |
| COc1cccc2cc(C(=O)NCc3ccccn3)c(=O)oc12 | – | inconclusive: 1.84 µM [falling, partial curve, poor fit] |
